Earlier results as cited in PMC8470770, “Characterization of a Primate Blood-Brain Barrier Co-Culture Model Prepared from Primary Brain Endothelial Cells, Pericytes and Astrocytes” (Pharmaceutics, 2021).

Design: method as in PMID 22906709
Conditions: cited from earlier work

## CC(C)NCC(O)COc1ccc(CC(N)=O)cc1 (stereo not shown) [Atenolol]
  Mouse In Vivo Papp: 0.23 ×10⁻⁶ cm/s
